The results in this text go back to patent publication US11357857B2, “Excipient compounds for protein processing” (COMERA LIFE SCIENCES, INC., priority 2014, dated 2022).

Where “and” joins values, the source holds several entries; their conditions need not be identical. Identical values can stand only once. Residues, ends and D or L forms follow the SMILES beside them.

Data set [1] deals with tocilizumab. The experiment in a line: Protein-A spin plate elution with excipient buffers, two elution washes, SEC peak area (Example 28). Conditions: elution buffer 20 mM citrate pH 2.6, excipient about 100 mM (Table 21).
Data set [2] relates to omalizumab. Described as above. The settings on record: elution buffer 20 mM citrate pH 2.6, excipient about 100 mM (Table 21).
In data set [3] the test system is ipilimumab. The description is as above. Conditions: elution buffer 20 mM citrate pH 2.6, excipient about 100 mM (Table 21).
Data set [4] relates to tocilizumab. Description: Protein-A spin plate elution with excipient buffers, one elution wash, SEC peak area (Example 29). The settings on record: 20 mM citrate pH 2.6, excipient about 100 mM (Table 26).
Data set [5] concerns omalizumab. The data set is described as above. Conditions: 20 mM citrate pH 2.6, excipient about 100 mM (Table 26).
The subject of data set [6] is ustekinumab. The data set is described as above. The settings on record: for Integrated peak area: 20 mM citrate pH 2.6, excipient about 100 mM (Table 26).
The subject of data set [7] is ipilimumab. The data set is described as above. The settings on record: 20 mM citrate pH 2.6, excipient about 100 mM (Table 26).
Data set [8] has as its system bovine gamma globulin (BGG). The experiment in a line: TFF concentration of BGG for […], protein concentration by Bradford assay (Example 26). The settings on record: 15 mg/mL caffeine.
For data set [9], the system named is bovine gamma globulin (BGG). The experiment in a line: Tangential flow filtration (TFF) of BGG, mass transfer coefficient (Example 25). The settings on record: 15 mg/mL caffeine.

Consider `OC[C@H]1O[C@@](CO)(O[C@H]2O[C@H](CO)[C@@H](O)[C@H](O)[C@H]2O)[C@@H](O)[C@@H]1O` [sucrose, reference compound], for which the “Peak area normalized to salt-free control” value in [1] was found to be 37.0%; in [2], 95.0%. The same compound had a Peak area in data set [3] of 4585 mAU*min.

For the compound `O=S(=O)(O)c1ccc(O)cc1` [4-hydroxybenzene sulfonic acid], the Integrated peak area was 4539 mAU * min in [4], 3190 mAU * min in data set [5] and 4132 mAU * min in [6]. The same compound showed a Peak area in data set [7] of 5836 mAU * min.

As to `NCCS(=O)(=O)O` [taurine], the Integrated peak area came to 5396 mAU * min in data set [4] and 4676 mAU * min in data set [5]. Also, the Peak area in data set [3] came out at 3958 mAU*min; in [7], 7557 mAU * min. Besides, the “Peak area normalized to salt control” value in [3] stood at 97.0%.

In [3], `OC[C@H]1O[C@H](O[C@H]2O[C@H](CO)[C@@H](O)[C@H](O)[C@H]2O)[C@H](O)[C@@H](O)[C@@H]1O` [trehalose, reference compound] displayed a Peak area of 3667 mAU*min.

Regarding `CN1CCCC1=O` [N-Methyl-2-pyrrolidone], the “Peak area normalized to salt control” value in data set [1] was determined as 8.4%; in data set [2], 97.0%; in [3], 9.5%. In addition, the figures for the “Peak area normalized to salt-free control” value in data set [1], in [2] and in data set [3] were 9.3%, 87.0% and 8.8%, respectively. Further, the Peak area in data set [3] was 386 mAU*min.

For the compound `Cn1c(=O)c2c(ncn2C)n(C)c1=O` [Caffeine], in [8], the “Increase of final protein concentration vs control” value is “approximately 42%”. For the same compound, the Integrated peak area in data set [4] is 5656 mAU * min; in data set [5], 5807 mAU * min; in data set [6], 5084 mAU * min. Besides, the “Peak area normalized to salt control” value in [6] (excipient about 100 mM (Table 26)) was determined as 120.0%. The Peak area in [7] worked out at 6051 mAU * min. Also, the “Increase of mass transfer coefficient vs control” value in [9] is recorded as around 13%. In data set [9] (150 mM NaCl, 20 mM histidine pH 6, best fit), the “Mass Transfer Coefficient kc” value was 25.4 LMH and 25.4 ± 0.1 LMH.

For the compound `c1c[nH]cn1` [Imidazole], the Integrated peak area was 4754 mAU * min in data set [4], 2589 mAU * min in data set [5] and 4617 mAU * min in [6]. Moreover, the Peak area in data set [7] is 6071 mAU * min.

With `COC(=O)[C@H](Cc1ccccc1)NC(=O)[C@@H](N)CC(=O)O` [Aspartame] (H-Asp-Phe-OMe), in data set [3], the Peak area is 4012 mAU*min.

For `NC(=O)c1cccnc1` [Niacinamide], the Integrated peak area in data set [4] is on record as 5225 mAU * min; in data set [5] it was 5748 mAU * min; in data set [6], 5848 mAU * min. Moreover, in [1], the “Peak area normalized to salt control” value is reported as 82.0%. In addition, the figures for the Peak area in data set [3] and in data set [7] were 4295 mAU*min and 6300 mAU * min, respectively.

Take `CC1=CC(=O)NS(=O)(=O)O1` [Acesulfame K, acesulfame potassium]: the Peak area in [3] amounted to 1567 mAU*min.
